This assay addresses T1, Oncostatin M receptor (OSMR) MaMTH-HTS bait (UniProt Q99650).
T1 sequence: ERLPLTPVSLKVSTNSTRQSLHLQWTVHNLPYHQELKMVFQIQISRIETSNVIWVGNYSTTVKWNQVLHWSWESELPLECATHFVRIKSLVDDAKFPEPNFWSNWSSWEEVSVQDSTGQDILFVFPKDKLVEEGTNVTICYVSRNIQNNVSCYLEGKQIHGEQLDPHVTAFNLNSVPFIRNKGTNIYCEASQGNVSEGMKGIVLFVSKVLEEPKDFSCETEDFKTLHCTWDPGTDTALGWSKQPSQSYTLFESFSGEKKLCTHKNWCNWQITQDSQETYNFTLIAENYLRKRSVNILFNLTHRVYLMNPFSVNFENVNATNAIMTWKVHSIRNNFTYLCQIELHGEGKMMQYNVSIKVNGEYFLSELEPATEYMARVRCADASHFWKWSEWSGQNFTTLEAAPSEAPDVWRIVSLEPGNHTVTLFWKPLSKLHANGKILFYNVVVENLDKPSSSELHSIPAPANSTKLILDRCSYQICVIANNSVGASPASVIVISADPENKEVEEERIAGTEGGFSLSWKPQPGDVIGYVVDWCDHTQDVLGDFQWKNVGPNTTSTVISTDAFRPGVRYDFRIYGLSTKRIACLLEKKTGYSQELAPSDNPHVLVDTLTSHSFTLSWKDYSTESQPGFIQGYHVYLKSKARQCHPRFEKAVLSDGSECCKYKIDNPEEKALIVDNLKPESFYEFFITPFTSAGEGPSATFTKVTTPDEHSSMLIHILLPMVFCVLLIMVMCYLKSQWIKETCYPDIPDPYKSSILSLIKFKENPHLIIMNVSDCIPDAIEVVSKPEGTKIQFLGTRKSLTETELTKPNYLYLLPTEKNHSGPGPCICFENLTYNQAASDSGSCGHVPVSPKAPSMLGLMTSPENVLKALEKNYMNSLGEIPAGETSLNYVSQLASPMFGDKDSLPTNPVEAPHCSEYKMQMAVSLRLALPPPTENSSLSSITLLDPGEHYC
Nature of the assay: two-hybrid.

Chains of the proteins cited; added tags and fusions are not shown. Residues count along the entry.
UniProt P07585, residues 31-359: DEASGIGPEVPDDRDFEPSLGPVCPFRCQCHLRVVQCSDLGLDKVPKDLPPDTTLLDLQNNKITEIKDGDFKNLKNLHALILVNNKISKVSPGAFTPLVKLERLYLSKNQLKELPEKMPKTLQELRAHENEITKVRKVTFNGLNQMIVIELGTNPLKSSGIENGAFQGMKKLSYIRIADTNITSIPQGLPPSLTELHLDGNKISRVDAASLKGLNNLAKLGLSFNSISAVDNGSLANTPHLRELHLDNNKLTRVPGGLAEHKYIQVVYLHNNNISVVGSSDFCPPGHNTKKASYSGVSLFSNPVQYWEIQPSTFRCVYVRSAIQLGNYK

No constants are given. Whether binding was seen depends on the method and setting. Some entries that bind do so weakly or less than the wild type.

As for “DCN MaMTH-HTS prey (from UniProt P07585 31-359)”, the binding entry is “binds”.

Consider “EIF2C3 MaMTH-HTS prey (from UniProt Q9H9G7 1-860)”, for which the binding entry is “binds”.

B1: CLEC2B MaMTH-HTS prey (protein, UniProt Q92478 1-149)
chain: MMTKHKKCFIIVGVLITTNIITLIVKLTRDSQSLCPYDWIGFQNKCYYFSKEEGDWNSSKYNCSTQHADLTIIDNIEEMNFLRRYKCSSDHWIGLKMAKNRTGQWVDGATFTKSFGMRGSEGCAYLSDDGAATARCYTERKWICRKRIH
With B1, the binding result was “binds”.

B2: CREB3 MaMTH-HTS prey (protein, UniProt O43889 1-371)
chain: MELELDAGDQDLLAFLLEESGDLGTAPDEAVRAPLDWALPLSEVPSDWEVDDLLCSLLSPPASLNILSSSNPCLVHHDHTYSLPRETVSMDLESESCRKEGTQMTPQHMEELAEQEIARLVLTDEEKSLLEKEGLILPETLPLTKTEEQILKRVRRKIRNKRSAQESRRKKKVYVGGLESRVLKYTAQNMELQNKVQLLEEQNLSLLDQLRKLQAMVIEISNKTSSSSTCILVLLVSFCLLLVPAMYSSDTRGSLPAEHGVLSRQLRALPSEDPYQLELPALQSEVPKDSTHQWLDGSDCVLQAPGNTSCLLHYMPQAPSAEPPLEWPFPDLFSEPLCRGPILPLQANLTRKGGWLPTGSPSVILQDRYSG
Consider B2, for which the binding result is on record as “binds”.

B3: IMMP2L MaMTH-HTS prey (protein, UniProt Q96T52 1-175)
chain: MAQSQGWVKRYIKAFCKGFFVAVPVAVTFLDRVACVARVEGASMQPSLNPGGSQSSDVVLLNHWKVRNFEVHRGDIVSLVSPKNPEQKIIKRVIALEGDIVRTIGHKNRYVKVPRGHIWVEGDHHGHSFDSNSFGPVSLGLLHAHATHILWPPERWQKLESVLPPERLPVQREEE
In the case of B3, the binding result is on record as “binds”.

B4: NAT8 MaMTH-HTS prey (protein, UniProt Q9UHE5 1-227)
chain: MAPCHIRKYQESDRQWVVGLLSRGMAEHAPATFRQLLKLPRTLILLLGGPLALLLVSGSWLLALVFSISLFPALWFLAKKPWTEYVDMTLCTDMSDITKSYLSERGSCFWVAESEEKVVGMVGALPVDDPTLREKRLQLFHLFVDSEHRRQGIAKALVRTVLQFARDQGYSEVILDTGTIQLSAMALYQSMGFKKTGQSFFCVWARLVALHTVHFIYHLPSSKVGSL
Take B4: the binding result is “binds”.

B5: GPBP1 MaMTH-HTS prey (protein, UniProt Q86WP2 1-473)
chain: MAQHDFAPAWLNFPTPPSSTKSSLNFEKHSENFAWTENRYDVNRRRHNSSDGFDSAIGRPNGGNFGRKEKNGWRTHGRNGTENINHRGGYHGGSSRSRSSIFHAGKSQGLHENNIPDNETGRKEDKRERKQFEAEDFPSLNPEYEREPNHNKSLAAGVWEYPPNPKSRAPRMLVIKKGNTKDLQLSGFPVVGNLPSQPVKNGTGPSVYKGLVPKPAAPPTKPTQWKSQTKENKVGTSFPHESTFGVGNFNAFKSTAKNFSPSTNSVKECNRSNSSSPVDKLNQQPRLTKLTRMRTDKKSEFLKALKRDRVEEEHEDESRAGSEKDDDSFNLHNSNSTHQERDINRNFDENEIPQENGNASVISQQIIRSSTFPQTDVLSSSLEAEHRLLKEMGWQEDSENDETCAPLTEDEMREFQVISEQLQKNGLRKNGILKNGLICDFKFGPWKNSTFKPTTENDDTETSSSDTSDDDDV
Consider B5, for which the binding result is given as “binds”.

B6: ST3GAL4 MaMTH-HTS prey (protein, UniProt Q11206 1-333)
chain: MVSKSRWKLLAMLALVLVVMVWYSISREDRYIELFYFPIPEKKEPCLQGEAESKASKLFGNYSRDQPIFLRLEDYFWVKTPSAYELPYGTKGSEDLLLRVLAITSSSIPKNIQSLRCRRCVVVGNGHRLRNSSLGDAINKYDVVIRLNNAPVAGYEGDVGSKTTMRLFYPESAHFDPKVENNPDTLLVLVAFKAMDFHWIETILSDKKRVRKGFWKQPPLIWDVNPKQIRILNPFFMEIAADKLLSLPMQQPRKIKQKPTTGLLAITLALHLCDLVHIAGFGYPDAYNKKQTIHYYEQITLKSMAGSGHNVSQEALAIKRMLEMGAIKNLTSF
Consider B6, for which the binding result is recorded as “binds”.

B7: GC MaMTH-HTS prey (protein, UniProt P02774 17-474)
chain: LERGRDYEKNKVCKEFSHLGKEDFTSLSLVLYSRKFPSGTFEQVSQLVKEVVSLTEACCAEGADPDCYDTRTSALSAKSCESNSPFPVHPGTAECCTKEGLERKLCMAALKHQPQEFPTYVEPTNDEICEAFRKDPKEYANQFMWEYSTNYGQAPLSLLVSYTKSYLSMVGSCCTSASPTVCFLKERLQLKHLSLLTTLSNRVCSQYAAYGEKKSRLSNLIKLAQKVPTADLEDVLPLAEDITNILSKCCESASEDCMAKELPEHTVKLCDNLSTKNSKFEDCCQEKTAMDVFVCTYFMPAAQLPELPDVELPTNKDVCDPGNTKVMDKYTFELSRRTHLPEVFLSKVLEPTLKSLGECCDVEDSTTCFNAKGPLLKKELSSFIDKGQELCADYSENTFTEYKKKLAERLKAKLPDATPTELAKLVNKHSDFASNCCSINSPPLYCDSEIDAELKNIL
As for B7, the binding result was “binds”.

B8: …2 MaMTH-HTS prey (protein, UniProt Q8N6G5 1-542)
chain: MPRRGLILHTRTHWLLLGLALLCSLVLFMYLLECAPQTDGNASLPGVVGENYGKEYYQALLQEQEEHYQTRATSLKRQIAQLKQELQEMSEKMRSLQERRNVGANGIGYQSNKEQAPSDLLEFLHSQIDKAEVSIGAKLPSEYGVIPFESFTLMKVFQLEMGLTRHPEEKPVRKDKRDELVEVIEAGLEVINNPDEDDEQEDEEGPLGEKLIFNENDFVEGYYRTERDKGTQYELFFKKADLTEYRHVTLFRPFGPLMKVKSEMIDITRSIINIIVPLAERTEAFVQFMQNFRDVCIHQDKKIHLTVVYFGKEGLSKVKSILESVTSESNFHNYTLVSLNEEFNRGRGLNVGARAWDKGEVLMFFCDVDIYFSAEFLNSCRLNAEPGKKVFYPVVFSLYNPAIVYANQEVPPPVEQQLVHKKDSGFWRDFGFGMTCQYRSDFLTIGGFDMEVKGWGGEDVHLYRKYLHGDLIVIRTPVPGLFHLWHEKRCADELTPEQYRMCIQSKAMNEASHSHLGMLVFREEIETHLHKQAYRTNSEAVG
Consider B8, for which the binding entry is listed as “binds”.

Values taken from article doi:10.1101/2025.03.05.641563.
